The text below walks through data of PMC8812904.

These are yes or no findings as the source states them, for the method shown. In cells and extracts the contact can be indirect. For part of these data: Binding can be weak; no strength is given. For part of these data: Sequences can lack the tags named with a protein.

B1: VSR4-N-luc (protein, UniProt Q56ZQ3 25-628)
chain: RFVVEKNSLSVTSPESIKGTHDSAIGNFGIPQYGGSMAGTVVYPKENQKSCKEFSDFSISFKSQPGALPTFLLVDRGDCFFALKVWNAQKAGASAVLVADNVDEPLITMDTPEEDVSSAKYIENITIPSALVTKGFGEKLKKAISGGDMVNLNLDWREAVPHPDDRVEYELWTNSNDECGVKCDMLMEFVKDFKGAAQILEKGGFTQFRPHYITWYCPHAFTLSRQCKSQCINKGRYCAPDPEQDFSSGYDGKDVVVENLRQLCVYKVANETGKPWVWWDYVTDFQIRCPMKEKKYNKDCAESVIKSLGIDSRKIDKCMGDPDADLDNPVLKEEQDAQVGKGTRGDVTILPTLVVNNRQYRGKLEKSAVLKALCSGFEESTEPAICLSTDMETNECLDNNGGCWQDKSANITACKDTFRGKVCVCPIVDGVRFKGDGYSHCEPSGPGRCTINNGGCWHEERDGHAFSACVDKDSVKCECPPGFKGDGVKKCEDINECKEKKACQCPECSCKNTWGSYECSCSGDLLYMRDHDTCISKTGSQVKSAWAAVWLIMLSLGLAAAGAYLVYKYRLRQYMDSEIRAIMAQYMPLDSQPEVPNHTNDERA
B2: TM-N-luc (protein, UniProt Q56ZQ3 25-628)
chain: RFVVEKNSLSVTSPESIKGTHDSAIGNFGIPQYGGSMAGTVVYPKENQKSCKEFSDFSISFKSQPGALPTFLLVDRGDCFFALKVWNAQKAGASAVLVADNVDEPLITMDTPEEDVSSAKYIEQITIPSALVTKGFGEKLKKAISGGDMVNLNLDWREAVPHPDDRVEYELWTNSNDECGVKCDMLMEFVKDFKGAAQILEKGGFTQFRPHYITWYCPHAFTLSRQCKSQCINKGRYCAPDPEQDFSSGYDGKDVVVENLRQLCVYKVAQETGKPWVWWDYVTDFQIRCPMKEKKYNKDCAESVIKSLGIDSRKIDKCMGDPDADLDNPVLKEEQDAQVGKGTRGDVTILPTLVVNNRQYRGKLEKSAVLKALCSGFEESTEPAICLSTDMETNECLDNNGGCWQDKSAQITACKDTFRGKVCVCPIVDGVRFKGDGYSHCEPSGPGRCTINNGGCWHEERDGHAFSACVDKDSVKCECPPGFKGDGVKKCEDINECKEKKACQCPECSCKNTWGSYECSCSGDLLYMRDHDTCISKTGSQVKSAWAAVWLIMLSLGLAAAGAYLVYKYRLRQYMDSEIRAIMAQYMPLDSQPEVPNHTNDERA
B3: AtVSR4 double mutant (DM) (protein, UniProt Q56ZQ3 25-628)
chain: RFVVEKNSLSVTSPESIKGTHDSAIGNFGIPQYGGSMAGTVVYPKENQKSCKEFSDFSISFKSQPGALPTFLLVDRGDCFFALKVWNAQKAGASAVLVADNVDEPLITMDTPEEDVSSAKYIENITIPSALVTKGFGEKLKKAISGGDMVNLNLDWREAVPHPDDRVEYELWTNSNDECGVKCDMLMEFVKDFKGAAQILEKGGFTQFRPHYITWYCPHAFTLSRQCKSQCINKGRYCAPDPEQDFSSGYDGKDVVVENLRQLCVYKVANETGKPWVWWDYVTDFQIRCPMKEKKYNKDCAESVIKSLGIDSRKIDKCMGDPDADLDNPVLKEEQDAQVGKGTRGDVTILPTLVVNNRQYRGKLEKSAVLKALCSGFEESTEPAICLSTDMETNECLDNNGGCWQDKSANITACKDTFRGKVCVCPIVDGVRFKGDGYSHCEPSGPGRCTINNGGCWHEERDGHAFSACVDKDSVKCECPPGFKGDGVKKCEDINECKEKKACQCPECSCKNTWGSYECSCSGDLLYMRDHDTCISKTGSQVKSAWAAVWLIMLSLGLAAAGAYLVYKYRLRQYMDSAIRAAAAQAMPADSQPEVPNHTNDERA
B4: AtVSR4TM-myc (protein, UniProt Q56ZQ3 25-628)
chain: RFVVEKNSLSVTSPESIKGTHDSAIGNFGIPQYGGSMAGTVVYPKENQKSCKEFSDFSISFKSQPGALPTFLLVDRGDCFFALKVWNAQKAGASAVLVADNVDEPLITMDTPEEDVSSAKYIEQITIPSALVTKGFGEKLKKAISGGDMVNLNLDWREAVPHPDDRVEYELWTNSNDECGVKCDMLMEFVKDFKGAAQILEKGGFTQFRPHYITWYCPHAFTLSRQCKSQCINKGRYCAPDPEQDFSSGYDGKDVVVENLRQLCVYKVAQETGKPWVWWDYVTDFQIRCPMKEKKYNKDCAESVIKSLGIDSRKIDKCMGDPDADLDNPVLKEEQDAQVGKGTRGDVTILPTLVVNNRQYRGKLEKSAVLKALCSGFEESTEPAICLSTDMETNECLDNNGGCWQDKSAQITACKDTFRGKVCVCPIVDGVRFKGDGYSHCEPSGPGRCTINNGGCWHEERDGHAFSACVDKDSVKCECPPGFKGDGVKKCEDINECKEKKACQCPECSCKNTWGSYECSCSGDLLYMRDHDTCISKTGSQVKSAWAAVWLIMLSLGLAAAGAYLVYKYRLRQYMDSEIRAIMAQYMPLDSQPEVPNHTNDERA
B5: AtVSR4-C1A (protein, UniProt Q56ZQ3 25-628)
chain: RFVVEKNSLSVTSPESIKGTHDSAIGNFGIPQYGGSMAGTVVYPKENQKSCKEFSDFSISFKSQPGALPTFLLVDRGDCFFALKVWNAQKAGASAVLVADNVDEPLITMDTPEEDVSSAKYIENITIPSALVTKGFGEKLKKAISGGDMVNLNLDWREAVPHPDDRVEYELWTNSNDECGVKCDMLMEFVKDFKGAAQILEKGGFTQFRPHYITWYCPHAFTLSRQCKSQCINKGRYCAPDPEQDFSSGYDGKDVVVENLRQLCVYKVANETGKPWVWWDYVTDFQIRCPMKEKKYNKDCAESVIKSLGIDSRKIDKCMGDPDADLDNPVLKEEQDAQVGKGTRGDVTILPTLVVNNRQYRGKLEKSAVLKALCSGFEESTEPAICLSTDMETNECLDNNGGCWQDKSANITACKDTFRGKVCVCPIVDGVRFKGDGYSHCEPSGPGRCTINNGGCWHEERDGHAFSACVDKDSVKCECPPGFKGDGVKKCEDINECKEKKACQCPECSCKNTWGSYECSCSGDLLYMRDHDTCISKTGSQVKSAWAAVWLIMLSLGLAAAGAYLVYKYRLRAAAAAEIRAIMAQYMPLDSQPEVPNHTNDERA
B6: AtVSR4-myc (protein, UniProt Q56ZQ3 25-628)
chain: RFVVEKNSLSVTSPESIKGTHDSAIGNFGIPQYGGSMAGTVVYPKENQKSCKEFSDFSISFKSQPGALPTFLLVDRGDCFFALKVWNAQKAGASAVLVADNVDEPLITMDTPEEDVSSAKYIENITIPSALVTKGFGEKLKKAISGGDMVNLNLDWREAVPHPDDRVEYELWTNSNDECGVKCDMLMEFVKDFKGAAQILEKGGFTQFRPHYITWYCPHAFTLSRQCKSQCINKGRYCAPDPEQDFSSGYDGKDVVVENLRQLCVYKVANETGKPWVWWDYVTDFQIRCPMKEKKYNKDCAESVIKSLGIDSRKIDKCMGDPDADLDNPVLKEEQDAQVGKGTRGDVTILPTLVVNNRQYRGKLEKSAVLKALCSGFEESTEPAICLSTDMETNECLDNNGGCWQDKSANITACKDTFRGKVCVCPIVDGVRFKGDGYSHCEPSGPGRCTINNGGCWHEERDGHAFSACVDKDSVKCECPPGFKGDGVKKCEDINECKEKKACQCPECSCKNTWGSYECSCSGDLLYMRDHDTCISKTGSQVKSAWAAVWLIMLSLGLAAAGAYLVYKYRLRQYMDSEIRAIMAQYMPLDSQPEVPNHTNDERA
modifications: N-linked high-mannose glycans at N148, N294 and N434
B7: AtVSR4 AMPA mutant (protein, UniProt Q56ZQ3 25-628)
chain: RFVVEKNSLSVTSPESIKGTHDSAIGNFGIPQYGGSMAGTVVYPKENQKSCKEFSDFSISFKSQPGALPTFLLVDRGDCFFALKVWNAQKAGASAVLVADNVDEPLITMDTPEEDVSSAKYIENITIPSALVTKGFGEKLKKAISGGDMVNLNLDWREAVPHPDDRVEYELWTNSNDECGVKCDMLMEFVKDFKGAAQILEKGGFTQFRPHYITWYCPHAFTLSRQCKSQCINKGRYCAPDPEQDFSSGYDGKDVVVENLRQLCVYKVANETGKPWVWWDYVTDFQIRCPMKEKKYNKDCAESVIKSLGIDSRKIDKCMGDPDADLDNPVLKEEQDAQVGKGTRGDVTILPTLVVNNRQYRGKLEKSAVLKALCSGFEESTEPAICLSTDMETNECLDNNGGCWQDKSANITACKDTFRGKVCVCPIVDGVRFKGDGYSHCEPSGPGRCTINNGGCWHEERDGHAFSACVDKDSVKCECPPGFKGDGVKKCEDINECKEKKACQCPECSCKNTWGSYECSCSGDLLYMRDHDTCISKTGSQVKSAWAAVWLIMLSLGLAAAGAYLVYKYRLRQYMDSEIRAIMAQAMPADSQPEVPNHTNDERA
B8: AtVSR4 AIRAAA mutant (protein, UniProt Q56ZQ3 25-628)
chain: RFVVEKNSLSVTSPESIKGTHDSAIGNFGIPQYGGSMAGTVVYPKENQKSCKEFSDFSISFKSQPGALPTFLLVDRGDCFFALKVWNAQKAGASAVLVADNVDEPLITMDTPEEDVSSAKYIENITIPSALVTKGFGEKLKKAISGGDMVNLNLDWREAVPHPDDRVEYELWTNSNDECGVKCDMLMEFVKDFKGAAQILEKGGFTQFRPHYITWYCPHAFTLSRQCKSQCINKGRYCAPDPEQDFSSGYDGKDVVVENLRQLCVYKVANETGKPWVWWDYVTDFQIRCPMKEKKYNKDCAESVIKSLGIDSRKIDKCMGDPDADLDNPVLKEEQDAQVGKGTRGDVTILPTLVVNNRQYRGKLEKSAVLKALCSGFEESTEPAICLSTDMETNECLDNNGGCWQDKSANITACKDTFRGKVCVCPIVDGVRFKGDGYSHCEPSGPGRCTINNGGCWHEERDGHAFSACVDKDSVKCECPPGFKGDGVKKCEDINECKEKKACQCPECSCKNTWGSYECSCSGDLLYMRDHDTCISKTGSQVKSAWAAVWLIMLSLGLAAAGAYLVYKYRLRQYMDSAIRAAAAQYMPLDSQPEVPNHTNDERA
B9: Endosome-localized AtVSR1, BiFC negative control (protein, UniProt P93026 23-623)
chain: VEKNNLKVTSPDSIKGIYECAIGNFGVPQYGGTLVGTVVYPKSNQKACKSYSDFDISFKSKPGRLPTFVLIDRGDCYFTLKAWIAQQAGAAAILVADSKAEPLITMDTPEEDKSDADYLQNITIPSALITKTLGDSIKSALSGGDMVNMKLDWTESVPHPDERVEYELWTNSNDECGKKCDTQIEFLKNFKGAAQILEKGGHTQFTPHYITWYCPEAFTLSKQCKSQCINHGRYCAPDPEQDFTKGYDGKDVVVQNLRQACVYRVMNDTGKPWVWWDYVTDFAIRCPMKEKKYTKECADGIIKSLGIDLKKVDKCIGDPEADVENPVLKAEQESQIGKGSRGDVTILPTLVVNNRQYRGKLEKGAVLKAMCSGFQESTEPAICLTEDLETNECLENNGGCWQDKAANITACRDTFRGRLCECPTVQGVKFVGDGYTHCKASGALHCGINNGGCWRESRGGFTYSACVDDHSKDCKCPLGFKGDGVKNCEDVDECKEKTVCQCPECKCKNTWGSYECSCSNGLLYMREHDTCIGSGKVGTTKLSWSFLWILIIGVGVAGLSGYAVYKYRIRSYMDAEIRGIMAQYMPLESQPPNTSGHHMDI

For one assay, the target named is C-luc-6K2 (Turnip mosaic virus (strain UK1)). Put plainly: split reporter; luciferase complementation imaging (LCI) in N. benthamiana leaves by agroinfiltration (OD600 0.50); 0.2 mM LUC substrate, imaged at 2 dpi.
On to B1, for which the binding result is given as “binds”.
For B2, the binding result is reported as “binds weakly”.

A further assay addresses 3×flag-tagged TuMV 6K2 (Turnip mosaic virus (strain UK1)). Put plainly: co-IP; proteins transiently co-expressed in N. benthamiana leaves; cleared lysates immunopurified with anti-Flag M2 gel, immunoblot with anti-Flag and anti-GFP or anti-myc antibodies.
On to B3, for which the binding entry is reported as “binds”.
Same read-out and setting: under B4 stands “binds weakly”; under B5, “no binding”; under B6, “binds”.
On to B7, for which the binding result is on record as “binds”.
On to B8, for which the binding result is reported as “binds”.

The next assay concerns the target TuMV 6K2^YC (BiFC fusion) (Turnip mosaic virus (strain UK1)). In words: split reporter; BiFC in N. benthamiana leaf cells by agroinfiltration; TuMV genes in p35S-gateway-YFP-C, host genes in p35S-YFP-N; confocal microscopy at 2 dpai.
Take B9: the binding entry is “no binding”.
